Laboratory results reported in the supplement of paper PMC3334620.
In all, about 33,000 sequences were measured (“E-score (-0.5 to 0.5)”: median about -0.015, highest 2% from about 0.3 on). This is one part of the list.

These sequences were tested against T1, Abf1 (UniProt P14164) (assay: PBM E-score (8-mer binding enrichment) (E-score (-0.5 to 0.5)); higher = stronger / more preferred TF binding). Conditions: protein concentration: 200 nM; construct: GST-full length.
T1 sequence: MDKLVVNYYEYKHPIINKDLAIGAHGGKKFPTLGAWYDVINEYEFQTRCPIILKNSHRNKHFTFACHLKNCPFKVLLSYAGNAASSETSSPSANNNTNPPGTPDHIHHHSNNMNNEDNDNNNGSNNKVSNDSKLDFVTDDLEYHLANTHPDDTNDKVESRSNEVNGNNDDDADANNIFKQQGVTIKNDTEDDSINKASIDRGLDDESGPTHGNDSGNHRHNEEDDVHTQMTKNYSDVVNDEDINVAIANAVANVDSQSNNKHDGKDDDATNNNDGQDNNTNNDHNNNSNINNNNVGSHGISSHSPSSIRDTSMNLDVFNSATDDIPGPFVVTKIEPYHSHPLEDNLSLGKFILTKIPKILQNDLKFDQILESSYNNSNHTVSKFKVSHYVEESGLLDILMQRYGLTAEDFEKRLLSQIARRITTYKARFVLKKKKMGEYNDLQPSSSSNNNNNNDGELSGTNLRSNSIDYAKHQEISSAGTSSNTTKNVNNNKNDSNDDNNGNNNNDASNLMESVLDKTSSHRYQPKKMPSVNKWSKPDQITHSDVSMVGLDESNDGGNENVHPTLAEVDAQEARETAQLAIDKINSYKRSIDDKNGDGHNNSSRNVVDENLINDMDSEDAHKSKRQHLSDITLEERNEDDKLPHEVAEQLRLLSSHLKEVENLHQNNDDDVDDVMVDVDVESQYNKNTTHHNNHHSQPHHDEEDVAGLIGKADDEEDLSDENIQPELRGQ
Method in brief: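 PURExpress in vitro transcription/translation supplied GST-tagged yeast transcription factors, either full-length or DNA-binding domain. Applied at about 100-200 nM to universal all-10-mer Agilent arrays double-stranded by primer extension, the bound protein was detected with fluorescent anti-GST. E-scores, modified Wilcoxon-Mann-Whitney statistics, were given by the Universal PBM Analysis Suite to ungapped eight-base words pooled with their reverse complements after masliner normalisation.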

Sequence | PBM E-score
ATGTACAT | 0.292
AGCCGTCA | 0.164
CGTACCAG | 0.0671
TTGGACAA | 0.0357
ATGGTAAT | 0.0696
AGATCGTA | 0.161
AACCATGG | -0.155
AGCCACGG | 0.11
CTAGGTGA | 0.0187
CAGTGCAG | -0.127
ACGCACGC | -0.0387
CGTAGCCA | 0.151
ACTGAAGG | -0.0571
AAACCTGA | -0.241
GCGCTTGA | -0.0555
AGTCTAGC | -0.222
GACATCCC | 0.0674
AATATAAA | 0.106
ATATTACA | 0.26
GAATCGTC | 0.239
CTTGGTAA | -0.204
CGGTTGGC | 0.0254
GGCAGAAC | -0.235
ATTCGAGG | -0.103
CTCAACAA | -0.0105

Quoted from the listing:
In PBM E-score, ATGGTAAT is listed with 0.0696
In PBM E-score, AGTCTAGC is listed with -0.222
In PBM E-score, AGCCACGG is listed with 0.11

Copied from above for reference:
Sequence | PBM E-score
GACATCCC | 0.0674
AATATAAA | 0.106
ATATTACA | 0.26

The listing continues:

Sequence | PBM E-score
CCAGAGGG | -0.267
ATCTTTGG | -0.139
GATCCTAA | 0.0497
CCTGTAAA | -0.242
CCCTGAAA | 0.0186
AAAGCCAA | -0.094
AGATATGG | 0.0661
AGTTTCCC | 0.102
CCACGAGC | 0.104
ACTTTTAA | 0.0622
CGCGAAGA | -0.0372
GATCGGGC | -0.195
ACCGCGCT | -0.0598
ACTGCGGA | -0.198
ACTCTCGC | -0.0437
CCGACTGC | -0.186
ACTCAGCT | -0.217
ATCTGCAA | -0.0241
AGGAACGA | 0.0039
AGCACGCC | -0.0981
AGGAGGTA | 0.0411
GCAGACAA | 0.0735
CAGACTTC | -0.283
ATTTTAGA | 0.0294
GGTCCAAA | -0.252

Sequence | PBM E-score
AGACCCAC | -0.172
GGCCCGAA | -0.0977
ATGGGTTA | -0.0945
CCGCTTCA | -0.141
AGAGAGAT | 0.0914
AATCATCG | 0.179
GGGCGACA | -0.129
GCCGCGAC | 0.109
CATGTTAA | 0.0065
ATCCCGAG | 0.0146
ATTAGGCC | -0.00913
GAGGAATA | 0.0204
ACTTTTTG | 0.0774
GTACTACA | 0.279
ACCAGTCC | -0.238
TAGAATGA | 0.119
CACTTGAC | 0.0447
GACTTATC | 0.179
AGCTACTA | -0.0232
GCCCCGGC | -0.204
CGGTCCAC | -0.0116
GGGCACGA | -0.00213
AAGAGCCG | -0.135
CGGTTGAA | 0.0448
AGAGACGC | -0.0432

Sequence | PBM E-score
AGTGGAGG | -0.0153
ATCGGAGG | -0.134
ACATGCGG | 0.126
GCTATGCA | -0.102
ATCTACTC | 0.0722
CTAGAGCA | -0.0213
ATTCTCAC | 0.0667
GTACAGGA | 0.157
ACTGTAAT | -0.06
ACGCCGTG | 0.188
AGCCACAT | -0.0203
CGCGACAA | 0.217
AACAGTGT | -0.0246
CACAAGCC | -0.218
CGACGATC | 0.298
CCCATTTA | -0.0213
CTCACTTC | -0.0359
GATTTGGC | -0.128
ATGCCCGA | 0.219
AGCATAGA | -0.15
ACGTCACT | 0.39
CGGCGCAA | -0.124
CCACATAA | 0.0942
TAATATTA | 0.361
CCTCTCGC | -0.106

Sequence | PBM E-score
ATCGCAAT | 0.106
GCTTAAGC | -0.151
CTCGGATA | 0.0365
CTTCTTTC | -0.0906
GCGCGAGA | 0.00596
CGTCAAGA | 0.141
TAGACCTA | -0.0392
CGTAAACC | -0.132
ATGGGGTC | -0.0774
TGAGGTAA | -0.0293
ATGATCAT | 0.387
AAAGGAGG | -0.243
CAATAATC | -0.0515
CGAGGGCC | -0.13
GAAGTCTC | -0.0571
CGGAAACA | -0.171
GATACACC | 0.1
AGGCCGGA | -0.0884
CATAGACG | 0.11
ACGAACGT | 0.289
AAAAAGTT | 0.00475
GGACATCA | 0.215
AGATGTTA | -0.0783
TGAATTCA | 0.171
GATCGTGA | 0.206

Sequence | PBM E-score
CCACGTCA | 0.247
CAGATACG | -0.0415
AAACGCCT | -0.273
AGATATGA | 0.105
CGCTCAGC | 0.21
CGTCTGCA | 0.125
GAAATGTA | 0.194
CGAGTGAA | -0.14
GACTTCCA | -0.18
CATCTCAA | 0.0491
GTCTGAGA | 0.0698
ATCTAGAC | -0.0647
CTCGAAGA | -0.199
TGACCGCA | 0.0759
CAGAATAC | 0.0059
AAATCTCA | 0.0662
AATGTAAC | 0.0935
CCCCGCAC | -0.22
GAGGGTTA | -0.174
TAAATGTA | 0.156
AGGGTCAC | 0.0338
CCAATCCG | 0.106
AGCAAATC | 0.0918
GGAGAGGA | -0.313
ACGTCATC | 0.294

Sequence | PBM E-score
AGCTAAGA | -0.117
GAGTCAAA | 0.00766
GCCGACCC | -0.189
ACTGTTGC | 0.0743
CCATGGGC | -0.148
CATTCTCG | -0.135
CAACACTC | 0.0627
GGTGTGAC | -0.174
ATTGATAC | 0.0766
CACATAAA | 0.227
GCCGTGTA | 0.239
CGCCCATA | 0.0703
TAGTCAGA | -0.142
CTGAACTA | -0.171
GGCGAGAA | 0.0803
CCTTGACC | -0.201
AGTCCGTG | -0.0678
TTGCCCAA | -0.0732
GTCGAGAC | -0.00305
CGAGCGAA | -0.0729
CGTCGTAG | 0.192
ACGGCACG | 0.175
